Experimental data taken from PMC9561704.
No constants are given. Whether binding was seen depends on the method and setting. In cells and extracts the contact can be indirect. Some results given as binding are weak or reduced against the parent protein; the word gives no strength. Where a sequence is shown, tags or fusion partners need not be part of it.

Protein sequences, listed by entry. Tags and fused reporters are not part of them.
UniProt Q96CV9: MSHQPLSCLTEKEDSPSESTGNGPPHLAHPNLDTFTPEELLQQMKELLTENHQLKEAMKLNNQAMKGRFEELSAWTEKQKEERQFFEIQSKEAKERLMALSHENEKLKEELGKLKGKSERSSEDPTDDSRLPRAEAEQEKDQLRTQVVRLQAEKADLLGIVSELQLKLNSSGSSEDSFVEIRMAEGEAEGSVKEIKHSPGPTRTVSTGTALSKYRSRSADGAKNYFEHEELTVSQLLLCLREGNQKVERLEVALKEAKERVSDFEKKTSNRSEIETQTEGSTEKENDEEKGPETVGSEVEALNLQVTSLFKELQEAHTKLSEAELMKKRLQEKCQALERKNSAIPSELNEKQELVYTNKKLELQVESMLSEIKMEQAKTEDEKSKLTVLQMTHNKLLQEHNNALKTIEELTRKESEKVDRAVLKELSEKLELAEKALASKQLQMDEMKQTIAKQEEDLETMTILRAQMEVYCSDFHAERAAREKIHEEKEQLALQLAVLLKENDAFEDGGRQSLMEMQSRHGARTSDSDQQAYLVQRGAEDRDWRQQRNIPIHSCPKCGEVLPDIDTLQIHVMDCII

Molecular target: N-terminal Flag-tagged OPTN (Optineurin), pCMV2-Flag-OPTN WT (UniProt Q96CV9)
Test: co-IP; HUVEC (10^7 cells, cultured on plastic) co-transfected with pCMV2-Flag-OPTN WT or empty vector and pKH3-HA3-Hace1; lysis in RIPA buffer (25 mM Tris-HCl pH 7.6, 150 mM NaCl, 1% NP-40, 1% sodium deoxycholate, 0.1% SDS); anti-FLAG M2 affinity gel 2 h at 4 °C; anti-HA immunoblot

- binding: binds
B1: HA-HACE1 (pKH3-HA3-Hace1) (enzyme, UniProt Q8IYU2 1-909)
chain: MERAMEQLNRLTRSLRRARTVELPEDNETAVYTLMPMVMADQHRSVSELLSNSKFDVNYAFGRVKRSLLHIAANCGSVECLVLLLKKGANPNYQDISGCTPLHLAARNGQKKCMSKLLEYSADVNICNNEGLTAIHWLAVNGRTELLHDLVQHVSDVDVEDAMGQTALHVACQNGHKTTVQCLLDSGADINRPNVSGATPLYFACSHGQRDTAQILLLRGAKYLPDKNGVTPLDLCVQGGYGETCEVLIQYHPRLFQTIIQMTQNEDLRENMLRQVLEHLSQQSESQYLKILTSLAEVATTNGHKLLSLSSNYDAQMKSLLRIVRMFCHVFRIGPSSPSNGIDMGYNGNKTPRSQVFKPLELLWHSLDEWLVLIATELMKNKRDSTEITSILLKQKGQDQDAASIPPFEPPGPGSYENLSTGTRESKPDALAGRQEASADCQDVISMTANRLSAVIQAFYMCCSCQMPPGMTSPRFIEFVCKHDEVLKCFVNRNPKIIFDHFHFLLECPELMSRFMHIIKAQPFKDRCEWFYEHLHSGQPDSDMVHRPVNENDILLVHRDSIFRSSCEVVSKANCAKLKQGIAVRFHGEEGMGQGVVREWFDILSNEIVNPDYALFTQSADGTTFQPNSNSYVNPDHLNYFRFAGQILGLALNHRQLVNIYFTRSFYKHILGIPVNYQDVASIDPEYAKNLQWILDNDISDLGLELTFSVETDVFGAMEEVPLKPGGGSILVTQNNKAEYVQLVTELRMTRAIQPQINAFLQGFHMFIPPSLIQLFDEYELELLLSGMPEIDVSDWIKNTEYTSGYEREDPVIQWFWEVVEDITQEERVLLLQFVTGSSRVPHGGFANIMGGSGLQNFTIAAVPYTPNLLPTSSTCINMLKLPEYPSKEILKDRLLVALHCGSYGYTMA
